Assay results taken from US20200397896A1, “Combination Therapies Comprising Daratumumab, Bortezomib, Thalidomide and Dexamethasone and Their Uses” (Janssen Biotech, Inc., priority 2019, published 2020).

Tested on: patients with multiple myeloma
Test: Clinical trials pooled (monotherapy and combination treatments; N=2,066), safety
Details: human, in vivo

DARZALEX: IgG1κ human monoclonal antibody against CD38; HC SEQ ID NO: 9, LC SEQ ID NO: 10
Median duration of 16 mg/kg infusion, 1st week: approximately 7 hours | Median duration of 16 mg/kg infusion, 2nd week: ~4 h | Median duration of 16 mg/kg infusion, subsequent infusions: ~3 h
